Structures can show the parent of a compound that is named as a salt. The list shows a part of the results. Hit calls seldom repeat between salt and free forms of one compound.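 Kinases were expressed as nanoluciferase fusions in K562 cells and luminescence was read every 4 h between 2 and 18 h as percent of control, DMSO set to 100% and a positive control to 0%. A time point counts as decreased when the signal drops significantly (2 sigma). The hit call is the authors' own, does not follow from the count of time points alone, and its rule is not shown.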
How the values were obtained:
Assay in all cases: kinase-Nluc reporter destabilization hit call (1 = scored as downregulated) (binary); higher = compound decreases kinase abundance
Conditions in all cases: K562, 2-18 h
MAPK1 = MAPK1 (UniProt P28482)
MAPK4 = MAPK4 (UniProt P31152)
MAPKAPK2 = MAPKAPK2 (UniProt P49137)
MKNK1 = MKNK1 (UniProt Q9BUB5)
NTRK2 = NTRK2 (UniProt Q16620)
NTRK3 = NTRK3 (UniProt Q16288)
PAK4 = PAK4 (UniProt O96013)
PBK = PBK (UniProt Q96KB5)
PDGFRB = PDGFRB (UniProt P09619)
PDK1 = PDK1 (UniProt Q15118)

Amino acid sequences for entries named in this document (tags omitted). A change or cut given only in a name is not applied to a line headed by its entry.
UniProt P28482, whole entry: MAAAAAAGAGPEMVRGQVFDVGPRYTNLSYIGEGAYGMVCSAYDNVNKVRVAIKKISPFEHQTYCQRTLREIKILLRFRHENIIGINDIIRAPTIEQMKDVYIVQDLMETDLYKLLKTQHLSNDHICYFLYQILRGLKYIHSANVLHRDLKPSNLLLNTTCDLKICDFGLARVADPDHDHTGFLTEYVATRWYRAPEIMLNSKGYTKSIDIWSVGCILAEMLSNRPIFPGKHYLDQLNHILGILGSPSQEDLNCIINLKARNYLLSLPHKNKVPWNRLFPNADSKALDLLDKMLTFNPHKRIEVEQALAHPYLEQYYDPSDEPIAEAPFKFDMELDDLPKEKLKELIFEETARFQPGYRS
UniProt P31152, whole entry: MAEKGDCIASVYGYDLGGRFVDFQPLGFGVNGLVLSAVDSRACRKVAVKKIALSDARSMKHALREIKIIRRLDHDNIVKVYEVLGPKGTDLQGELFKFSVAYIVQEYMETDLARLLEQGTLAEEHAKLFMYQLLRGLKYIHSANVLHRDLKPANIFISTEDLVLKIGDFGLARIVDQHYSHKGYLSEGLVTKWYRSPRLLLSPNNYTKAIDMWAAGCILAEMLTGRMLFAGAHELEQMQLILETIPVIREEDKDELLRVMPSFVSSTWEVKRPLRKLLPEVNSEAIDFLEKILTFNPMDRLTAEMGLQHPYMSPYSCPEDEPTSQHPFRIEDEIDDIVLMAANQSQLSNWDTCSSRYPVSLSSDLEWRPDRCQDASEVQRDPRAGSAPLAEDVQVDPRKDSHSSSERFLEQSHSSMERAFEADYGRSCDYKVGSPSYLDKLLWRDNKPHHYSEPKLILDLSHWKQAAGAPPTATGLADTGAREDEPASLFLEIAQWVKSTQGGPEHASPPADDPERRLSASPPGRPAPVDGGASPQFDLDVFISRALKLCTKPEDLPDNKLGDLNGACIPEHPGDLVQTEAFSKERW
UniProt P49137, whole entry, looked up: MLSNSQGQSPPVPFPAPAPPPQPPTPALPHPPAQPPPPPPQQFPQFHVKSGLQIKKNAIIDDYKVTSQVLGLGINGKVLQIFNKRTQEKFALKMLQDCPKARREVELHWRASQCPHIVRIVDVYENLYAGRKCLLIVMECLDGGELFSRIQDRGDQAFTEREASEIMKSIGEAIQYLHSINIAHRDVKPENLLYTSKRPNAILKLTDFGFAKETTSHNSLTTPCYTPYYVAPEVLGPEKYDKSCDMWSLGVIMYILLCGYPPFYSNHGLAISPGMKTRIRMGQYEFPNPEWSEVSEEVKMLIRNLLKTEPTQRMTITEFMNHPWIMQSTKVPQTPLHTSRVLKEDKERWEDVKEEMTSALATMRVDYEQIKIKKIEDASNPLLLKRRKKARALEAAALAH
UniProt Q9BUB5: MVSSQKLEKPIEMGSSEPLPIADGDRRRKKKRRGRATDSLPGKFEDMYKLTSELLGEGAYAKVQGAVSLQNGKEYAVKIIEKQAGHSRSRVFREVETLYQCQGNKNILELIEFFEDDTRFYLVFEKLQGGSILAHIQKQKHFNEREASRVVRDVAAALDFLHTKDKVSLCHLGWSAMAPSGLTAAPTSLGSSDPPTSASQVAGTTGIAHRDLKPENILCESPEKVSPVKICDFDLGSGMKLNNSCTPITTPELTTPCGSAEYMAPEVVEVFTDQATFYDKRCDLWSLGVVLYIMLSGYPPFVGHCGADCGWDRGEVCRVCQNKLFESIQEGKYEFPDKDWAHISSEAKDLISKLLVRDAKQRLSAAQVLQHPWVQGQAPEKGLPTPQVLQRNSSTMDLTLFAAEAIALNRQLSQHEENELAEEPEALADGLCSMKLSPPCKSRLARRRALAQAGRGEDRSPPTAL
UniProt Q16620, whole entry, looked up: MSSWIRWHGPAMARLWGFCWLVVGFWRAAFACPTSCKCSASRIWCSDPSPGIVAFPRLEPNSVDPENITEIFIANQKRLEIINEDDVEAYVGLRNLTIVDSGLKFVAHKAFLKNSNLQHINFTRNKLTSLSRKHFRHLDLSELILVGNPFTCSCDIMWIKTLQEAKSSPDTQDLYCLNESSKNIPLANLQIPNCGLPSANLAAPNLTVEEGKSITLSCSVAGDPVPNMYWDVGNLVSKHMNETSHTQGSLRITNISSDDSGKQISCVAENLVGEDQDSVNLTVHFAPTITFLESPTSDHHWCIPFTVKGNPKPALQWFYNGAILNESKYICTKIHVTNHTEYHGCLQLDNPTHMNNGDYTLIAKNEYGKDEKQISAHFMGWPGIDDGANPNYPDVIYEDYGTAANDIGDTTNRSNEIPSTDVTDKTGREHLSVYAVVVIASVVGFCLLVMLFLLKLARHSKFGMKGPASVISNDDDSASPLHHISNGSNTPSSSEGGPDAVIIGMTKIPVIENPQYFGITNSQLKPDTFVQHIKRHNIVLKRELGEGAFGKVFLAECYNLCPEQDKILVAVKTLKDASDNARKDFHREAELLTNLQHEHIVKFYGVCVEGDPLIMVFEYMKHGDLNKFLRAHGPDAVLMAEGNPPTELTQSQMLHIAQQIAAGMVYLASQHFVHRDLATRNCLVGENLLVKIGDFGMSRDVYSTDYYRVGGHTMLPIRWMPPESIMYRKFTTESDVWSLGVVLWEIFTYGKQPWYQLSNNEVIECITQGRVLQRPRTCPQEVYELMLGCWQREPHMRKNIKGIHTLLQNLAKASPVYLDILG
UniProt Q16288, whole entry, looked up: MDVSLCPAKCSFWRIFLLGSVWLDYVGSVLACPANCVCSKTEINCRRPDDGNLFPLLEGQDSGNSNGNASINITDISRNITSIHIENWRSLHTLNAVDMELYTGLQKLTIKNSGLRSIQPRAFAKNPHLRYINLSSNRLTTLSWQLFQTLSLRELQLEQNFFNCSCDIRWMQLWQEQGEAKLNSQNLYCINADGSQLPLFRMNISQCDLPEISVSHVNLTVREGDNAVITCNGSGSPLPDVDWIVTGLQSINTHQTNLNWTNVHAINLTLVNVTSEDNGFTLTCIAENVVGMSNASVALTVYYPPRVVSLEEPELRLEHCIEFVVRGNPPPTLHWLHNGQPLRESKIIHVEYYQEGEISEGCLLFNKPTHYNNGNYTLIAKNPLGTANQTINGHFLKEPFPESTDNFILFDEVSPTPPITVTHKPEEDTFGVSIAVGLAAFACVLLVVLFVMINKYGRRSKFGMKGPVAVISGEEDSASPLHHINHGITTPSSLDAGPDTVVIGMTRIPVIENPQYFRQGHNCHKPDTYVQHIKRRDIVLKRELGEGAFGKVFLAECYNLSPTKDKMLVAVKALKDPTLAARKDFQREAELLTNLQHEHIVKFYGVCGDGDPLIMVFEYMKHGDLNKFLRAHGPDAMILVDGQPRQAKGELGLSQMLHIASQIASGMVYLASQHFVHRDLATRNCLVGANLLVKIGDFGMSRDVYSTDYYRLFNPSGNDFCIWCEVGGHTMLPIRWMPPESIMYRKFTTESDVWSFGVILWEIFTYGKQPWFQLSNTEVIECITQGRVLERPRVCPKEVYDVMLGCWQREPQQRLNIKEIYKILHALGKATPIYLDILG
UniProt O96013: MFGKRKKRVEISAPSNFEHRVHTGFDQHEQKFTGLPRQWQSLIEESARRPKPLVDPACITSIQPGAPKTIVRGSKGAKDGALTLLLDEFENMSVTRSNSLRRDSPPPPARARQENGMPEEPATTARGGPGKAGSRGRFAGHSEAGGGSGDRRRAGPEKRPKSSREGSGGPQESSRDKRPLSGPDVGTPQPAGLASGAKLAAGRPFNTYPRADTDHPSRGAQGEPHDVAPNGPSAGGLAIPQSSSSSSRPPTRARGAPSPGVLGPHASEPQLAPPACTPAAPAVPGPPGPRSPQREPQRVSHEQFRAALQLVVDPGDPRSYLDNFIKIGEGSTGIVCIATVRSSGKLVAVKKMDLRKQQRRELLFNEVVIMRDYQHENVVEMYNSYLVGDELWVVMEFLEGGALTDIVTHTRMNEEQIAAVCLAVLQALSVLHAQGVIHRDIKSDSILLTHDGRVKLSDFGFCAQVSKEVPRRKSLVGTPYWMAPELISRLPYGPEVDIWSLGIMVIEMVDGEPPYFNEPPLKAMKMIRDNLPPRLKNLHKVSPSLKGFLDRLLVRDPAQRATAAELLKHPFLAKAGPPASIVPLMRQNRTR
UniProt Q96KB5: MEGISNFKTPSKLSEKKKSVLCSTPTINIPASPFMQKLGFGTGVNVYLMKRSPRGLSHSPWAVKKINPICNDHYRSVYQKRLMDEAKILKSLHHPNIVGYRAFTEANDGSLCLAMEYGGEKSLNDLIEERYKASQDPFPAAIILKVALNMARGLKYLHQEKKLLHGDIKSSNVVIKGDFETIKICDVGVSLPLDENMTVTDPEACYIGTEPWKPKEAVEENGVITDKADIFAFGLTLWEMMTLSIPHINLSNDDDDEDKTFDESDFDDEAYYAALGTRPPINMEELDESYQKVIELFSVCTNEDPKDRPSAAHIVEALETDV
UniProt P09619, whole entry: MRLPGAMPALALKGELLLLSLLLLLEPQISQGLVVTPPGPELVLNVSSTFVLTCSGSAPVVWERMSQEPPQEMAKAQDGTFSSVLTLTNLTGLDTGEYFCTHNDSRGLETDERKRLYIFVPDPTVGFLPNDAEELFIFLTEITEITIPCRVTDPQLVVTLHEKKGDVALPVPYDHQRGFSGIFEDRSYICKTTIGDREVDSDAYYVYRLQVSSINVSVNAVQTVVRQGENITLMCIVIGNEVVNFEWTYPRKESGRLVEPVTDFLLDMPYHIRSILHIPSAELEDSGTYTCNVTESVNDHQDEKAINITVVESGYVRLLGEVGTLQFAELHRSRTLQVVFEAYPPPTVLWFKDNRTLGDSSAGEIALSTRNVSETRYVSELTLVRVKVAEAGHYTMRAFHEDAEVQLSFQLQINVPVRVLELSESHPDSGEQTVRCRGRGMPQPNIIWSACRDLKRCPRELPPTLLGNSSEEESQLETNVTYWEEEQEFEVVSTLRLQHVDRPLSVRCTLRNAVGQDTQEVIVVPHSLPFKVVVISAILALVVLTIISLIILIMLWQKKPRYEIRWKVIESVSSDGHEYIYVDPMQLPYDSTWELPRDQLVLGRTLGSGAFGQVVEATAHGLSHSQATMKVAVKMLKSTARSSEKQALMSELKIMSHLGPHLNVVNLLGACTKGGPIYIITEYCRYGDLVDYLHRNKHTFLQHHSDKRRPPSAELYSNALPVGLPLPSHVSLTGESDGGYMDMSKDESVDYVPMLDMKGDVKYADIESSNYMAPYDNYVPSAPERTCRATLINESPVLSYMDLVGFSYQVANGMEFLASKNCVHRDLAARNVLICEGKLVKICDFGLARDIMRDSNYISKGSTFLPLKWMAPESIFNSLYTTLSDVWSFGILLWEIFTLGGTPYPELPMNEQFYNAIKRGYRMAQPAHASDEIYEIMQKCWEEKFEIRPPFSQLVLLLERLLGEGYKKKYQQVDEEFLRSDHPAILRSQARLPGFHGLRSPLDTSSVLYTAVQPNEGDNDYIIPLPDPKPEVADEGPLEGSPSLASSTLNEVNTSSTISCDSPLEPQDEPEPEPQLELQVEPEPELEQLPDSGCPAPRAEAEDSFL
UniProt Q15118, whole entry, looked up: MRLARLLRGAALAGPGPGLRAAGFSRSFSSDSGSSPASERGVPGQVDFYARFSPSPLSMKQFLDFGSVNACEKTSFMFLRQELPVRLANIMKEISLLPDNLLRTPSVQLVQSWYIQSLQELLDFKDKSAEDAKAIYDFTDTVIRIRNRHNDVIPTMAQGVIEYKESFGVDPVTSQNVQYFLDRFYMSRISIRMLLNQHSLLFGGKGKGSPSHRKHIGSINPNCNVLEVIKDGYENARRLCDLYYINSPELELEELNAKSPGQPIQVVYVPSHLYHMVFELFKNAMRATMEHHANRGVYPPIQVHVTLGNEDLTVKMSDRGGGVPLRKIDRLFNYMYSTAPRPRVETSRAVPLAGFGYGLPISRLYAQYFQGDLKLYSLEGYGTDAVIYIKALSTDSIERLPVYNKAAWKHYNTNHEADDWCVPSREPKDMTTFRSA

Measured: kinase-Nluc reporter destabilization hit call

C=CC(=O)Nc1cc(Nc2nccc(-c3cn(C)c4ccccc34)n2)c(OC)cc1N(C)CCN(C)C [Osimertinib]
inactive: MAPK1; 2.5 µM 0 | MAPK4; 2.5 µM 0 | MAPKAPK2; 2.5 µM 0 | MKNK1; 2.5 µM 0 | NTRK2; 2.5 µM 0 | NTRK3; 2.5 µM 0 | PAK4; 2.5 µM 0 | PBK; 2.5 µM 0 | PDGFRB; 2.5 µM 0 | PDK1; 2.5 µM 0

C=CC(=O)Nc1cc2c(Nc3ccc(F)c(Cl)c3)ncnc2cc1C#CC(C)(C)N1CCN(C)CC1 [AV-412 (free base)]
inactive: MAPK1; 2.5 µM 0 | MAPK4; 2.5 µM 0 | MAPKAPK2; 2.5 µM 0 | MKNK1; 2.5 µM 0 | NTRK2; 2.5 µM 0 | NTRK3; 2.5 µM 0 | PAK4; 2.5 µM 0 | PBK; 2.5 µM 0 | PDGFRB; 2.5 µM 0 | PDK1; 2.5 µM 0

CCS(=O)(=O)N1CCN(c2ccc(Nc3ncc(C(N)=O)c(NC4CC4)n3)cc2)CC1 [Cerdulatinib (hydrochloride)]
inactive: MAPK1; 10 µM 0 | MAPK4; 10 µM 0 | MAPKAPK2; 10 µM 0 | MKNK1; 10 µM 0 | NTRK2; 10 µM 0 | NTRK3; 10 µM 0 | PAK4; 10 µM 0 | PBK; 10 µM 0 | PDGFRB; 10 µM 0 | PDK1; 10 µM 0

CC(C)Oc1ccc(-c2nn([C@@H](C)c3oc4ccc(F)cc4c(=O)c3-c3cccc(F)c3)c3ncnc(N)c23)cc1F [Umbralisib (hydrochloride)]
inactive: MAPK1; 2.5 µM 0 | MAPK4; 2.5 µM 0 | MAPKAPK2; 2.5 µM 0 | MKNK1; 2.5 µM 0 | NTRK2; 2.5 µM 0 | NTRK3; 2.5 µM 0 | PAK4; 2.5 µM 0 | PBK; 2.5 µM 0 | PDGFRB; 2.5 µM 0 | PDK1; 2.5 µM 0

O=C1Nc2ccccc2/C1=C/c1ccccn1 [GSK-3β inhibitor 1]
inactive: MAPK1; 10 µM 0 | MAPK4; 10 µM 0 | MAPKAPK2; 10 µM 0 | MKNK1; 10 µM 0 | NTRK2; 10 µM 0 | NTRK3; 10 µM 0 | PAK4; 10 µM 0 | PBK; 10 µM 0 | PDGFRB; 10 µM 0 | PDK1; 10 µM 0

CNC(=O)c1cc(Oc2ccc(NC(=O)Nc3ccc(Cl)c(C(F)(F)F)c3)c(F)c2)ccn1 [Regorafenib]
inactive: MAPK1; 2.5 µM 0 | MAPK4; 2.5 µM 0 | MAPKAPK2; 2.5 µM 0 | MKNK1; 2.5 µM 0 | NTRK2; 2.5 µM 0 | NTRK3; 2.5 µM 0 | PAK4; 2.5 µM 0 | PBK; 2.5 µM 0 | PDGFRB; 2.5 µM 0 | PDK1; 2.5 µM 0

CN(C)C(=O)c1cc2cnc(Nc3ccc(N4CCNCC4)cn3)nc2n1C1CCCC1 [Ribociclib hydrochloride]
inactive: MAPK1; 2.5 µM 0 | MAPK4; 2.5 µM 0 | MAPKAPK2; 2.5 µM 0 | MKNK1; 2.5 µM 0 | NTRK2; 2.5 µM 0 | NTRK3; 2.5 µM 0 | PAK4; 2.5 µM 0 | PBK; 2.5 µM 0 | PDGFRB; 2.5 µM 0 | PDK1; 2.5 µM 0

An excerpt from above in order of molar mass, low to high:
CN(C)C(=O)c1cc2cnc(Nc3ccc(N4CCNCC4)cn3)nc2n1C1CCCC1 [Ribociclib hydrochloride]
inactive: MAPK1; 2.5 µM 0 | MAPK4; 2.5 µM 0 | MAPKAPK2; 2.5 µM 0 | MKNK1; 2.5 µM 0 | NTRK2; 2.5 µM 0 | NTRK3; 2.5 µM 0 | PAK4; 2.5 µM 0 | PBK; 2.5 µM 0 | PDGFRB; 2.5 µM 0 | PDK1; 2.5 µM 0

CCS(=O)(=O)N1CCN(c2ccc(Nc3ncc(C(N)=O)c(NC4CC4)n3)cc2)CC1 [Cerdulatinib (hydrochloride)]
inactive: MAPK1; 10 µM 0 | MAPK4; 10 µM 0 | MAPKAPK2; 10 µM 0 | MKNK1; 10 µM 0 | NTRK2; 10 µM 0 | NTRK3; 10 µM 0 | PAK4; 10 µM 0 | PBK; 10 µM 0 | PDGFRB; 10 µM 0 | PDK1; 10 µM 0

CC(C)Oc1ccc(-c2nn([C@@H](C)c3oc4ccc(F)cc4c(=O)c3-c3cccc(F)c3)c3ncnc(N)c23)cc1F [Umbralisib (hydrochloride)]
inactive: MAPK1; 2.5 µM 0 | MAPK4; 2.5 µM 0 | MAPKAPK2; 2.5 µM 0 | MKNK1; 2.5 µM 0 | NTRK2; 2.5 µM 0 | NTRK3; 2.5 µM 0 | PAK4; 2.5 µM 0 | PBK; 2.5 µM 0 | PDGFRB; 2.5 µM 0 | PDK1; 2.5 µM 0

Continued.

C[C@@H](N)c1ccc(C(=O)Nc2ccnc3[nH]ccc23)cc1
inactive: MAPK1; 10 µM 0 | MAPK4; 10 µM 0 | MAPKAPK2; 10 µM 0 | MKNK1; 10 µM 0 | NTRK2; 10 µM 0 | NTRK3; 10 µM 0 | PAK4; 10 µM 0 | PBK; 10 µM 0 | PDGFRB; 10 µM 0 | PDK1; 10 µM 0

CN(C)C(=N)NC(=N)N [Metformin (hydrochloride)]
inactive: MAPK1; 10 µM 0 | MAPK4; 10 µM 0 | MAPKAPK2; 10 µM 0 | MKNK1; 10 µM 0 | NTRK2; 10 µM 0 | NTRK3; 10 µM 0 | PAK4; 10 µM 0 | PBK; 10 µM 0 | PDGFRB; 10 µM 0 | PDK1; 10 µM 0

CCS(=O)(=O)N1CC(CC#N)(n2cc(-c3ncnc4[nH]ccc34)cn2)C1 [Baricitinib]
inactive: MAPK1; 10 µM 0 | MAPK4; 10 µM 0 | MAPKAPK2; 10 µM 0 | MKNK1; 10 µM 0 | NTRK2; 10 µM 0 | NTRK3; 10 µM 0 | PAK4; 10 µM 0 | PBK; 10 µM 0 | PDGFRB; 10 µM 0 | PDK1; 10 µM 0

C=CC(=O)Nc1cc(Nc2nccc(-c3cn(C4CC4)c4ccccc34)n2)c(OC)cc1N(C)CCN(C)C [Almonertinib]
inactive: MAPK1; 2.5 µM 0 | MAPK4; 2.5 µM 0 | MAPKAPK2; 2.5 µM 0 | MKNK1; 2.5 µM 0 | NTRK2; 2.5 µM 0 | NTRK3; 2.5 µM 0 | PAK4; 2.5 µM 0 | PBK; 2.5 µM 0 | PDGFRB; 2.5 µM 0 | PDK1; 2.5 µM 0

C=CC(=O)N1CCN(c2ncnc3c(F)c(-c4c(O)cccc4F)c(Cl)cc23)CC1
inactive: MAPK1; 2.5 µM 0 | MAPK1; 10 µM 0 | MAPK4; 2.5 µM 0 | MAPK4; 10 µM 0 | MAPKAPK2; 2.5 µM 0 | MAPKAPK2; 10 µM 0 | MKNK1; 2.5 µM 0 | MKNK1; 10 µM 0 | NTRK2; 2.5 µM 0 | NTRK2; 10 µM 0 | NTRK3; 2.5 µM 0 | NTRK3; 10 µM 0 | PAK4; 2.5 µM 0 | PAK4; 10 µM 0 | PBK; 2.5 µM 0 | PBK; 10 µM 0 | PDGFRB; 2.5 µM 0 | PDGFRB; 10 µM 0 | PDK1; 2.5 µM 0 | PDK1; 10 µM 0

COc1ccnc(C[S+]([O-])c2nc3cc(-n4cccc4)ccc3[nH]2)c1C (stereo not given) [Ilaprazole]
inactive: MAPK1; 10 µM 0 | MAPK4; 10 µM 0 | MAPKAPK2; 10 µM 0 | MKNK1; 10 µM 0 | NTRK2; 10 µM 0 | NTRK3; 10 µM 0 | PAK4; 10 µM 0 | PBK; 10 µM 0 | PDGFRB; 10 µM 0 | PDK1; 10 µM 0
